Results are given in words; binding and its absence hold for the method and conditions named. Binding calls can cover weak binding; strength is not graded here.
B1: BC-A8 (Fab) (Fab, V domains shown)
VH: QTVKESGGRLVTPGAPLTLTCTVSRFSLSSYAMTWVRQAPGKGLEWIGIINNDGSSSTWYASWVKGRFTISKTSTTMDLKMTSLTTEDTATYFCARGGTSGYDIWGPGTLVTVSL
VL: AQGLTQTPSPVSAAVGGTVTINCQSSPSVYKNYLSWYQQKPGQPPKLLIYGASTLASGVPSRFKGSGSGTQFTLTISDVQCDDAATYYCAGGYRGSSDIFAFGGGTEVVVK
B2: BC-B10 (Fab) (Fab, V domains shown)
VH: QSVEESGGRLVTPGAPLTLTCTVSRFSLSSYAMTWVRQAPGKGLEWIGIINNDVISSTWYASWVKGRFTISKTSTTMELKMTSLTTEDTATYFCARGGTSGYDIWGPGTLVTVSS
VL: AIKMTQTPSPVSAAVGGTVTINCQSSPSVYKNYLSWYQQKPGQPPKLLIYGASTLASGVPSRFKGSGSGTQFTLTISDVQCDDAATYYCAGGYIGSRDIFSFGGGTEVVVK
B3: BC-D3 (Fab) (Fab, V domains shown)
VH: QSLEESGGRLVTPGTPLTLTCTVSGFSLYTYAMGWVRQAPGKGLEWIGIINNDGISSTWYASWVKGRFTISKTSTTMDLKMTSLTTEDTATYFCARGGTSGYDIWGPGTLVTVSL
VL: AQGLTQTPSPVSAAVGGTVTINCQSGPSVYKNYLSWYQQKAGQPPKLLIYGASTLASGVPSRFKGSGSGTQFTLTISDVQCDDAATYYCAGGYRGSSDIFAFGGGTEVVVK
B4: BC-B8 (Fab) (Fab, V domains shown)
VH: QSLEESGGRLVTPGTPLTLTCTVSGFSLYTYAMGWVRQAPGKGLEWIGIINNDGISSTWYASWVKGRFTISKTSTTMDLKMTSLTTEDTATYFCARGGTSGYDIWGPGTLVTVSL
VL: AQGLTQTPSPVSAAVGGTVTINCQSGPSVYKNYLSWYQQKAGQPPKLLIYGASTLASGVPSRFKGSGSGTQFTLTISDVQCDDAATYYCAGGYRGSSDIFAFGGGTEVVVK
B5: SC-F6 (Fab) (Fab, V domains shown)
VH: QSVKESGGRLVTPGAPLTLTCTVSRFSLSSYAMTWVRQAPGKGLEWIGIINNDGISSTWYASWVKGRFTISKTSTTMDLKMTSLTTEDTATYFCARGGTSGYDIWGPGTLVTVSL
VL: AQGMTQTPASVSAAVGGTVTINCQSSPSVYKNYLSWYQQKSGQPPKLLIYGASTLASGVPSRFKGSGSGTQFTLTISDVQCDDAATYYCAGGYRGSSDIFAFGGGTEVVVK
B6: BC-B4 (Fab) (Fab, V domains shown)
VH: QSVEESGGRLVTPGGSLTLTCTVSRFSLSSYAMTWVRQAPGKGLEWIGIINNDGISSTWYASWVKGRFTISKTSTTMDLKMTSLTTEDTATYFCARGGTSGYDIWGPGTVVTVSL
VL: ALVLTQTPSPVSAAVGGTVTINCQSSQSVYKNYLSWYQQKPGQPPKLLIYGASTLASGVPSRFKGSGSGTQFTLTISDVQCDDAATYYCAGGYRGSGDIFAFGGGTEVVVK
B7: SC-H10 (Fab) (Fab, V domains shown)
VH: QSLEESGGRLVTPGAPLTLTCTVSRFSLSSYAMTWVRQAPGKGLEWIGIINNDGISSTWYASWVKGRFTISKTSTTMDLKMTSLTTEDTATYFCARGGTSGYDIWGPGTLVTVSL
VL: AQGLTQTPSPVSAAVGGTVTINCQSSPSVYKNYLSWYQQKPGQPPKLLIYGASTLASGVPSRFSGSGSGTQFTLTISDVQCDDAATYYCAGGYRGSSDIFAFGGGTEVVVK
B8: BC-E1 (Fab) (Fab, V domains shown)
VH: QSVKESGGRLVAPGTPLTLTCAVSGFSLSSYAMTWVRQAPGKGLEWIGIINNDGRSSTWYASWVKGRFTISKTSTTMDLKMTSPTTEDTATYFCARGGTSGYDIWGPGTLVTVSL
VL: AQGMTQTPSPVSAAVGGTVTINCQSSPSVYKNYLSWYQQKPGQPPKLLIYGASTLASGVPSRFKGSGSGTRFTLTISDVQCDDAATYYCAGGYRGSSDIFAFGGGTEVVVK
B9: SC-C7 (Fab) (Fab, V domains shown)
VH: QTVKESGGRLVTPGAPLTLTCTVSRFSLSGYAMTWVRQAPGKGLEWIGIINNDISGSTWYASWVKGRFTISKTSTTMDLKMTSLTTEDTATYFCARGGTSGYDIWGPGTLVTVSS
VL: DVVMTQTPSPVSAAVGGTVTINCQSSPSVYKNYLSWYQQKPGQPPKLLIYGASTLASGVPSRFKGSGSGTQFTLTISDVQCDDAATYYCAGGYRGSSDIFAFGGGTEVVVK
B10: BC-A3 (Fab) (Fab, V domains shown)
VH: QTVKESGGRLVTPGAPLTLTCTVSRFSLSSYAMTWVRQAPGKGLEWIGIINNDGVSSTWYASWVKGRFTISKTSTTMDLKMTSLTTEDTATYFCARGGTSGYDIWGPGTLVTVSL
VL: AQVLTQTPASVSAAVRGTVTINCQSSPSVYKNYLSWYQQKSGQPPKLLIYGASTLASGVPSRFKGSGSGTQFTLTISDVQCDDAATYYCAGGYRGSSDIFAFGGGTEVVVK
B11: SC-D10 (Fab) (Fab, V domains shown)
VH: QSVKESGGRLVTPGGSLTLTCTVSRFSLSSYAMTWVRQAPGKGLEWIGIINNDGVSSTWYASWVKGRFTISKTSTTMDLKMTSLTTEDTATYFCARGGTSGYDIWGPGTLVTVSL
VL: ALVMTQTPSPVSAAVGGTVTTNCQSSPSVYKNYLSWYQQKPGQPPKLLIYKASTLASGVPSRFSGSGSGTQFTLTISDVQCDDAATYYCAGGYRGSSDIFAFGGGTEVVVK
B12: SC-G8 (Fab) (Fab, V domains shown)
VH: QSVEESGGRLVMPGGSLTLTCTASGFSLSSYAMTWVRQAPGKGLEWIGIINNDGSGSTWYASWVKGRFTISKTSTTMDLKMTSLTTEDTATYFCARGGTSGYDIWGPGTLVTVSL
VL: AAVLTQTPSPVSAAVGGTVTINCQSSPSVYKNYLSWYQQKPGQPPKLLIYKASTLASGVPSRFKGSGSGTQFTLTISDVQCDDAATYYCAGGYRGYSDIFAFGGGTEVVVK
B13: BC-G6 (Fab) (Fab, V domains shown)
VH: QSVEESGGRLVTPGGSLTLTCTASGFSLSGYAMTWVRQAPGKGLEWIGIINNDGISSTWYASWVKGRFTISKTSTTMDLKMTSLTTEDTATYFCARGGTSGYDIWGPGTLVTVSL
VL: ALVMTQTPSPVSAAVGGTVTINCQSSPSVYKNYLSWYQQKPGQPPKLLIYGASTLASGVPSRFKGSGSGTQFTLTISDVQCDDAATYYCAGGYRGSSDIFAFGGGTEVVVK
B14: BC-A9 (Fab) (Fab, V domains shown)
VH: QSVEESGGRLVTPGGSLTLTCTVSRFSLSSYAMTWVRQAPGKGLEWIGIINNDGISSTWYASWVKGRFTISKTSTTMDLKMTSLTTEDTATYFCARGGTSGYDIWGPGTVVTVSL
VL: AQGLTQTPASVSAAVGGTVTINCQSSPSVYKNYLSWYQQKSGQPPKLLIYGASTLASGAPSRFKGSGSGTQFTLTISDVQCDDAATYYCAGGYRGSSDIFAFGGGTEVVVK
B15: BC-H4 (Fab) (Fab, V domains shown)
VH: QQLKESGGRLVTPGAPLTLTCTVSRFSLSSYAMTWVRQAPGKGLEWIGIINNDGVSSTWYASWVKGRFTISKTSTTMDLKMTSLTTEDTATYFCARGGTSGYDIWGPGTLVTVSS
VL: ALVLTQTPSPVSAAVGGTVTINCQSSPSVYKNYLSWYQQKPGQPPKLLIYGASTLASGVPSRFKGSGSGTQFTLTISDVQCDDAATYYCAGGYRGSGDIFAFGGGTEVVVK
B16: BC-F2 (Fab) (Fab, V domains shown)
VH: QSVKESGGRLVAPGTPLTLTCAVSGFSLSSYAMTWVRQAPGKGLEWIGIINNDGRSSTWYASWVKGRFTISKTSTTMDLKMTSPTTEDTATYFCARGGTSGYDIWGPGTLVTVSL
VL: AQGMTQTPSPVSAAVGGTVTINCQSSPSVYKNYLSWYQQKPGQPPKLLIYGASTLASGVPSRFKGSGSGTRFTLTISDVQCDDAATYYCAGGYRGSSDIFAFGGGTEVVVK
B17: BC-E4 (Fab) (Fab, V domains shown)
VH: QSVKESGGRLVAPGTPLTLTCAVSGFSLSSYAMTWVRQAPGKGLEWIGIINNDGRSSTWYASWVKGRFTISKTSTTMDLKMTSPTTEDTATYFCARGGTSGYDIWGPGTLVTVSL
VL: AQGMTQTPSPVSAAVGGTVTINCQSSPSVYKNYLSWYQQKPGQPPKLLIYGASTLASGVPSRFKGSGSGTRFTLTISDVQCDDAATYYCAGGYRGSSDIFAFGGGTEVVVK
B18: BC-E11 (Fab) (Fab, V domains shown)
VH: QSVKESGGRLVAPGTPLTLTCAVSGFSLSSYAMTWVRQAPGKGLEWIGIINNDGRSSTWYASWVKGRFTISKTSTTMDLKMTSPTTEDTATYFCARGGTSGYDIWGPGTLVTVSL
VL: AQGMTQTPSPVSAAVGGTVTINCQSSPSVYKNYLSWYQQKPGQPPKLLIYGASTLASGVPSRFKGSGSGTRFTLTISDVQCDDAATYYCAGGYRGSSDIFAFGGGTEVVVK
B19: BC-E3 (Fab) (Fab, V domains shown)
VH: QSVKESGGRLVAPGTPLTLTCAVSGFSLSSYAMTWVRQAPGKGLEWIGIINNDGRSSTWYASWVKGRFTISKTSTTMDLKMTSPTTEDTATYFCARGGTSGYDIWGPGTLVTVSL
VL: AQGMTQTPSPVSAAVGGTVTINCQSSPSVYKNYLSWYQQKPGQPPKLLIYGASTLASGVPSRFKGSGSGTRFTLTISDVQCDDAATYYCAGGYRGSSDIFAFGGGTEVVVK
B20: BC-F7 (Fab) (Fab, V domains shown)
VH: QSVEESGGRLVTPGGSLTLTCTVSRFSLSSYAMTWVRQAPGKGLEWIGIINNDGISSTWYASWVKGRFTISKTSTTMDLKMTSLTTEDTATYFCARGGTSGYDIWGPGTVVTVSL
VL: ALVLTQTPSPVSAAVGGTVTINCQSSQSVYKNYLSWYQQKPGQPPKLLIYGASTLASGVPSRFKGSGSGTQFTLTISDVQCDDAATYYCAGGYRGSGDIFAFGGGTEVVVK
B21: BC-C8 (Fab) (Fab, V domains shown)
VH: QSLEESGGRLVTPGGSLTLTCTVSRFSLSSYAMTWVRQAPGKGLEWIGIINNDGISSTWYASWVKGRFTISKTSTTMDLKMTSLTTEDTATYFCARGGTSGYDIWGPGTVVTVSL
VL: ALVLTQTPSPVSAAVGGTVTINCQSSPSVYKNYLSWYQQKPGQPPKLLIYGASTLASGVPSRFKGSGSGTQFTLTISDVQCDDAATYYCAGGYRGSSDIFAFGGGTEVVVK

These binders were tested against AQP3 on AQP3 expressing CHO cells (species not stated) (assay: FACS on AQP3 expressing CHO cells, Fab).

binding, binds:
B1
B2
B3
B4
B5
B6
B7
B8
B9
B10
B11
B12
B13
B14
B15
B16
B17
B18
B19
B20
B21

Source: patent US20220298237A1 (KEIO UNIVERSITY, published 2022)
